Experimental data: PubChem BioAssay AID256 (DTP/NCI, 2004)
The list shows only some results of the screen, not a fair sample: it gathers tests that were run many times, whatever their T/C, doses with no T/C, and many T/C values between a quarter and a half above the control. Further doses and runs are listed elsewhere. T/C is the treated group as % of the vehicle group. Some entries give survivors of the animals treated and no T/C: the source holds a T/C of zero for them, seemingly a mark for toxic or unscored doses. Some survivor counts are full or nearly so, which does not show that the dose was tolerated: the source hardly ever lists a survival T/C far under the control, and the zero likely stands for such cases as well. Counts of survivors are from the toxicity check (mostly the fifth day) where no day follows; animals may have died later. Schedules are NCI's codes, taken here to give the interval after Q, in days (D) or hours (H), and the number of doses after X. Some molecules as drawn cover several salts, stereoisomers or complexes of the source; a dose is that of the sample tested. For survival time, this PubChem deposit counts one and a half times the control or more as active, and values a quarter to a half above the control carry no call in these data; other NCI protocols may use other cut-offs. Some entries were tested several times; the values are given in rising order. Some T/C values carry the count of animals alive at the toxicity check (mostly the fifth day); where none is given, no animal had died by that day.

System: CD2F1 mice, L1210 leukemia ip, survival T/C
Experiment: NCI In Vivo Anticancer Drug Screen. Data for tumor model L1210 Leukemia (intraperitoneal) in CD2F1 (CDF1) mice
Conditions: higher T/C = longer survival
How it was run: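 Activity against a transplanted murine tumor was judged by comparing the compound group with a vehicle group. The outcome in the treated animals was divided by that in the controls.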

[1] = T/C endpoint: mean survival time, dose: 100.0 mg/kg/injection, schedule: Q04DX003 (ip), vehicle: saline with Tween-80
[2] = T/C endpoint: mean survival time, dose: 200.0 mg/kg/injection, schedule: Q04DX003 (ip), vehicle: saline with Tween-80
[3] = T/C endpoint: mean survival time, dose: 150.0 mg/kg/injection, schedule: Q01DX001 (ip), vehicle: saline
[4] = T/C endpoint: mean survival time, dose: 300.0 mg/kg/injection, schedule: Q01DX001 (ip), vehicle: saline
[5] = T/C endpoint: mean survival time, dose: 400.0 mg/kg/injection, schedule: Q01DX009 (ip), vehicle: saline with Tween-80
[6] = T/C endpoint: mean survival time, dose: 400.0 mg/kg/injection, schedule: Q04DX003 (ip), vehicle: saline with Tween-80
[7] = T/C endpoint: mean survival time, dose: 200.0 mg/kg/injection, schedule: Q01DX009 (ip), vehicle: saline
[8] = T/C endpoint: mean survival time, dose: 400.0 mg/kg/injection, schedule: Q01DX009 (ip), vehicle: saline
[9] = T/C endpoint: mean survival time, dose: 200.0 mg/kg/injection, schedule: Q04DX003 (ip), vehicle: saline
[10] = T/C endpoint: mean survival time, dose: 400.0 mg/kg/injection, schedule: Q01DX001 (ip), vehicle: saline
[11] = T/C endpoint: mean survival time, dose: 400.0 mg/kg/injection, schedule: Q04DX003 (ip), vehicle: saline
[12] = T/C endpoint: mean survival time, dose: 100.0 mg/kg/injection, schedule: Q01DX009 (ip), vehicle: saline with Tween-80
[13] = T/C endpoint: mean survival time, dose: 200.0 mg/kg/injection, schedule: Q01DX009 (ip), vehicle: saline with Tween-80

`O=C(O)c1ccc(O)cc1C(=O)O.[NH-]C1CCCCC1[NH-].[Pt+2]` was tested, and the T/C (T/C endpoint: mean survival time, dose: 2.35 mg/kg/injection, schedule: Q04DX003 (ip), vehicle: other) was 125 % of control, the T/C (T/C endpoint: mean survival time, dose: 4.69 mg/kg/injection, schedule: Q04DX003 (ip), vehicle: other) was 133 % of control and the survivor count (T/C endpoint: mean survival time, dose: 37.5 mg/kg/injection, schedule: Q04DX003 (ip), vehicle: other) was 10 of 10.

For `C[n+]1c(/C=C/c2ccccc2Cl)ccc2ccccc21`, the survivor count [1] was 3 of 6 and the survivor count [2] was 3 of 6.

In the case of `Cc1c([N+](=O)[O-])cc(C(C)(C)C)c(OC(=S)N(C)C)c1[N+](=O)[O-]`, the survivor count (T/C endpoint: mean survival time, dose: 100.0 mg/kg/injection, schedule: Q04DX002 (ip), vehicle: saline with Tween-80) is reported as 2 of 3, the survivor count (T/C endpoint: mean survival time, dose: 200.0 mg/kg/injection, schedule: Q04DX002 (ip), vehicle: saline with Tween-80) is reported as 3 of 3 and the survivor count (T/C endpoint: mean survival time, dose: 400.0 mg/kg/injection, schedule: Q04DX002 (ip), vehicle: saline with Tween-80) is reported as 0 of 3.

For `CN1CCC(O)(O)C(Br)C1` (stereo unspecified), the survivor count [3] was 3 of 6 and the survivor count [4] was 0 of 6.

With `Cc1cccc(NC(=O)/C=C/C(=O)O)c1` the survivor count [5] was 6 of 6.

In the case of `CSC(=S)NN=C(C)C`, the survivor count (T/C endpoint: mean survival time, dose: 3.13 mg/kg/injection, schedule: Q01DX009 (ip), vehicle: saline sonified) is reported as 6 of 6, the survivor count (T/C endpoint: mean survival time, dose: 25.0 mg/kg/injection, schedule: Q04DX003 (ip), vehicle: saline with Tween-80) is reported as 2 of 6 and the survivor count [1] is reported as 1 of 6. The survivor count [2] was 1 of 6 and the survivor count [6] was 0 of 6.

`NC(=O)c1c(N)sc2c1CCCC2` was tested, and the survivor count [1] was 1 of 6, the survivor count [2] was 0 of 6 and the survivor count [6] was 0 of 6.

`CC1OC(n2cc(C(N)=O)c3c(N)ncnc32)C(O)C1O` (stereo unspecified) was tested, and the survivor count [7] was 3 of 6 and the survivor count [8] was 2 of 6.

For `Nc1cc2c(cc1Br)-c1ccccc1C2Br` (stereo unspecified), the survivor count [2] was 3 of 6.

With `CC(=O)Nc1ncc2ccccc2c1-c1ccc(NC(=O)CN(CCCl)CCCl)cc1` the survivor count (T/C endpoint: mean survival time, dose: 400.0 mg/kg/injection, schedule: Q04DX003 (ip), vehicle: other) was 3 of 3.

In the case of `CCCCCC(C)N` (stereo unspecified), the survivor count (T/C endpoint: mean survival time, dose: 100.0 mg/kg/injection, schedule: Q01DX001 (ip), vehicle: saline) is reported as 2 of 4, the survivor count (T/C endpoint: mean survival time, dose: 100.0 mg/kg/injection, schedule: Q04DX003 (ip), vehicle: saline) is reported as 3 of 6 and the survivor count (T/C endpoint: mean survival time, dose: 200.0 mg/kg/injection, schedule: Q01DX001 (ip), vehicle: saline) is reported as 1 of 4. For the same molecule, the survivor count [9] was 0 of 6, the survivor count [10] was 0 of 4 and the survivor count [11] was 0 of 6.

`CCCCCCCCN(C)N=Nc1ccc(C(N)=O)cc1` was tested, and the T/C (T/C endpoint: mean survival time, dose: 266.0 mg/kg/injection, schedule: Q01DX009 (ip), vehicle: Klucel (hydroxypropylcellulose) (HPC)) was 128 % of control.

`Oc1cc(O)cc(/C=C/c2ccc(O)c(O)c2)c1` was tested, and the survivor count (T/C endpoint: median survival time, dose: 100.0 mg/kg/injection, schedule: Q01DX009 (ip), vehicle: DMSO) was 5 of 6, the survivor count (T/C endpoint: median survival time, dose: 200.0 mg/kg/injection, schedule: Q01DX009 (ip), vehicle: DMSO) was 0 of 6 and the survivor count (T/C endpoint: median survival time, dose: 400.0 mg/kg/injection, schedule: Q01DX009 (ip), vehicle: DMSO) was 0 of 6.

`Cc1cc(Cl)ccc1NC(=O)Nc1c(Oc2ccc(Cl)cc2)ccc(Cl)c1S(=O)(=O)O` was tested, and the survivor count [10] was 5 of 6.

In the case of `O=C1CC2CCCCC2CO1` (stereo unspecified), the survivor count [3] is reported as 1 of 6 and the survivor count [4] is reported as 0 of 6.

With `c1ccc2[nH]c(CCCCc3nc4ccccc4[nH]3)nc2c1` the survivor count [11] was 3 of 6.

For `CC1(C)C(O)C(C)(C)C1O` (stereo unspecified), the survivor count [12] was 3 of 6, the survivor count [2] was 2 of 6 and the survivor count [6] was 0 of 6.

With `OCC1OC(n2cnc3c(SSc4ncnc5c4ncn5C4OC(CO)C(O)C4O)ncnc32)C(O)C1O` (stereo unspecified) the T/C (T/C endpoint: mean survival time, dose: 267.0 mg/kg/injection, schedule: Q01DX009 (ip), vehicle: saline) was 143 % of control and the survivor count (T/C endpoint: mean survival time, dose: 600.0 mg/kg/injection, schedule: Q01DX009 (ip), vehicle: saline) was 3 of 6.

`O=C(CCl)Nc1cc(C(F)(F)F)ccc1Cl` was tested, and the survivor count [12] was 2 of 6, the survivor count [13] was 1 of 6 and the survivor count [5] was 2 of 6.

In the case of `COC(=O)c1cccnc1C(=O)O`, the survivor count (T/C endpoint: mean survival time, dose: 100.0 mg/kg/injection, schedule: Q01DX009 (ip), vehicle: saline) is reported as 5 of 6, the survivor count [7] is reported as 3 of 6 and the survivor count [8] is reported as 2 of 6.

In the case of `CC(=O)OCC1OC(OC(C)=O)C(NC(=S)N(C)N=O)C(OC(C)=O)C1OC(C)=O` (stereo unspecified), the T/C (T/C endpoint: mean survival time, dose: 200.0 mg/kg/injection, schedule: Q04DX002 (ip), vehicle: distilled water + Tween-80) is reported as 125 and 134 % of control, the T/C (T/C endpoint: mean survival time, dose: 400.0 mg/kg/injection, schedule: Q04DX002 (ip), vehicle: distilled water + Tween-80) is reported as 131 and 132 % of control and the T/C (T/C endpoint: mean survival time, dose: 800.0 mg/kg/injection, schedule: Q04DX002 (ip), vehicle: distilled water + Tween-80) is reported as 132 % of control [4 of 6 alive].

With `CN(Cc1cnc2nc(N[Si](C)(C)C)nc(N[Si](C)(C)C)c2n1)c1ccc(C(=O)NC(CCC(=O)O[Si](C)(C)C)C(=O)O[Si](C)(C)C)cc1` (stereo unspecified) the T/C (T/C endpoint: mean survival time, dose: 0.63 mg/kg/injection, schedule: Q01DX009 (ip), vehicle: saline) was 149 % of control, the T/C (T/C endpoint: mean survival time, dose: 3.8 mg/kg/injection, schedule: Q04DX003 (ip), vehicle: saline) was 128 % of control and the T/C (T/C endpoint: mean survival time, dose: 5.0 mg/kg/injection, schedule: Q01DX009 (ip), vehicle: saline) was 146 % of control. For the same molecule, the T/C (T/C endpoint: mean survival time, dose: 10.0 mg/kg/injection, schedule: Q01DX009 (ip), vehicle: saline) was 127 % of control.

With `O=C1CN(Cl)C(=O)CN1Cl` the survivor count (T/C endpoint: mean survival time, dose: 300.0 mg/kg/injection, schedule: Q04DX002 (ip), vehicle: saline with Tween-80) was 0 of 3.

In the case of `CC#CCOCC(O)CCl` (stereo unspecified), the survivor count (T/C endpoint: median survival time, dose: 400.0 mg/kg/injection, schedule: Q01DX005 (ip), vehicle: suspension in saline) is reported as 5 of 6, the survivor count (T/C endpoint: median survival time, dose: 800.0 mg/kg/injection, schedule: Q01DX005 (ip), vehicle: saline) is reported as 2 of 6 and the survivor count (T/C endpoint: median survival time, dose: 800.0 mg/kg/injection, schedule: Q01DX005 (ip), vehicle: suspension in saline) is reported as 0 of 6.

`O=C(O)C(O)C(=O)O.[NH2-].[NH2-].[Pt+2]` was tested, and the survivor count [9] was 9 of 10.

With `O=C1C=CC(=O)C(Sc2ccccc2)=C1` the survivor count [12] was 1 of 6, the survivor count [13] was 2 of 6 and the survivor count [5] was 2 of 6.

`CC1(C)N=C(N)N=C(N)N1c1ccc(OCCCCNC(=O)c2cccc(S(=O)(=O)F)c2)c(Cl)c1` was tested, and the survivor count (T/C endpoint: mean survival time, dose: 100.0 mg/kg/injection, schedule: Q01DX001 (ip), vehicle: saline with Tween-80) was 0 of 6, the survivor count (T/C endpoint: mean survival time, dose: 200.0 mg/kg/injection, schedule: Q01DX001 (ip), vehicle: saline with Tween-80) was 0 of 6 and the survivor count (T/C endpoint: mean survival time, dose: 400.0 mg/kg/injection, schedule: Q01DX001 (ip), vehicle: saline with Tween-80) was 0 of 6.

`CNC(=O)NNC(=O)CNC(=O)Nc1cccc([N+](=O)[O-])c1` was tested, and the survivor count [12] was 0 of 6, the survivor count [13] was 0 of 6 and the survivor count [5] was 0 of 6.

`CC(=O)Oc1ccc(N2C(=O)C3C(C2=O)C2c4ccccc4C3C3CCCCN32)cc1` (stereo unspecified) (tested in a mixture with another compound) was tested, and the survivor count (T/C endpoint: mean survival time, dose: 400.0 mg/kg/injection, schedule: Q01DX009 (ip), vehicle: water) was 0 of 6.

With `CC1=[S+]c2ccccc2C2Nc3ccccc3C12` (stereo unspecified) the survivor count (T/C endpoint: mean survival time, dose: 400.0 mg/kg/injection, schedule: Q04DX003 (ip), vehicle: acetone) was 3 of 6.

`O=C1c2ccccc2C(=O)c2c1cn1c2Cc2ccccc2C1` was tested, and the T/C (T/C endpoint: median survival time, dose: 25.0 mg/kg/injection, schedule: Q01DX005 (ip), vehicle: Klucel (hydroxypropylcellulose) (HPC)) was 130 % of control and the survivor count (T/C endpoint: median survival time, dose: 150.0 mg/kg/injection, schedule: Q01DX005 (ip), vehicle: other) was 1 of 6.

For `CSc1nc(Cl)cc(Sc2nc(N)nc3nc[nH]c23)n1`, the T/C (T/C endpoint: mean survival time, dose: 75.0 mg/kg/injection, schedule: Q01DX009 (ip), vehicle: Klucel (hydroxypropylcellulose) (HPC)) was 134 % of control and the survivor count (T/C endpoint: mean survival time, dose: 300.0 mg/kg/injection, schedule: Q01DX009 (ip), vehicle: Klucel (hydroxypropylcellulose) (HPC)) was 6 of 6.

In the case of `N#CCCCSc1ccccc1`, the survivor count [10] is reported as 0 of 6.
